Assay results: patent publication US20160257759A1

Experiments:
[1] = target: biotinylated human delta-like 2 (DLL2) (human); test: ELISA, IgG (0.3 ug/ml) captured on anti-human lambda plate, biotinylated antigen titrated, neutravidin-AP
[2] = target: biotinylated human delta-like 2 (DLL2) (human); test: condition: 1000 (relative amount of antigen, no unit); capture ELISA: B10 IgG captured on anti-human lambda, serially diluted biotinylated DLL2, neutravidin-AP, PNPP, absorbance

- binding [1]: no binding
- binding [2]: no binding
B1: JG1B10 (antibody, V domains shown)
VH: EVQLVESGGGLVQPGGSLRLSCAASGSTFSSYGMHWVRQAPGKGLEWVAVIWYDGSNKYYADSVKGRFTISRDNSKNTLYLQMNSLRAEDTAVYYCARGYNHDYWGQGTLVTVSS
VL: LPVLTQPASVSGSPGQSITISCTGTSSDVGGYNYVSWYQQHPGKAPKLMIYDVSNRPSGVSNRFSGSKSGNTASLTISGLQAEDEADYYCSSYTSSSTYVFGIGTKLTVL

Results are given in words; binding and its absence hold for the method and conditions named.
